PubChem BioAssay AID493014 (National Center for Advancing Translational Sciences (NCATS), 2011)
Among all 340,000 compounds or so, about 170 (0.05%) were called active. The shares of active, inactive and inconclusive entries below differ from those in the screen. Calls follow the shape of the dose curve; as a rule, active = well fitted inhibition curve with a large enough effect in the signal ratio, with a control signal flat (not every such curve was filed as active); inconclusive = small, poorly fitted or top-dose-only effect, or effect the other way, or a change in a side signal; inactive = flat fitted curve, though single readings scatter; the % refers to the signal ratio. A potency beside an inconclusive call is a rough fit, not a confirmed value.
Potency is read from the fitted curve at half-maximal effect.

Assay: qHTS Assay to Find Inhibitors of Chronic Active B-Cell Receptor Signaling;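 as to activity change, negative = inhibition: plate controls were basal doxycycline-induced cells for no effect and cells given 10 µM MG132 for full effect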
Conditions: ABC-DLBCL IkBa-CBG/CBR reporter, luminescence ratio (green luciferase fused to IkBa over red control in TMD8 lymphoma cells), 4 h; activity change, negative = inhibition: at 46.1 µM (top of the series) unless noted
Method in brief: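 Concentration-response series (up to 46 uM) were applied to TMD8 dual-reporter cells for 4 h at 37C with doxycycline. Green/red ratio, after filter-overlap correction, defined %Activity; red signal alone was normalised to basal cells and zero luminescence.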
For COc1ccccc1/C=C/C(=O)NC(=S)N1CCOCC1, the Potency was inconclusive: 20 µM [falling, partial curve, poor fit]. With COC(=O)CCC(=O)Oc1ccc(OC(=O)CCC(=O)OC)cc1 the activity change, negative = inhibition was inconclusive: 1.65%. In the case of Cc1nnc(-c2cnn(C)c2N)n1CCCN1CCOCC1, the activity change, negative = inhibition is reported as “inactive”. With Clc1ccc(-c2ccc(CNCC3CCCO3)o2)cc1 (stereo unspecified) the activity change, negative = inhibition was “inactive”. For CCc1cc(C(=O)NNC(=S)NCc2ccccc2)cs1, the Potency was inconclusive: 28.2 µM [falling, single point]. With O=C(C1=C[C@H](c2ccc3c(c2)OCO3)C[C@H](OCCCCO)O1)N1CCN(Cc2ccc3c(c2)OCO3)CC1 the activity change, negative = inhibition was “inactive”. For O=C(CCc1nc(-c2ccc(F)cc2)no1)Nc1cccc(C(=O)NC2CC2)c1, the activity change, negative = inhibition was “inactive”. With O=C(Nc1ccccc1Cl)c1ccc(F)c(S(=O)(=O)NCc2ccc(Cl)c(Cl)c2)c1 the activity change, negative = inhibition was inconclusive: -18.2%. For CCOC(=O)Cc1csc(N)n1, the activity change, negative = inhibition was inconclusive: 14%. In the case of O=C(O)CCC(=O)c1ccc2ccc3cccc4ccc1c2c34, the Potency is reported as inconclusive: 3.98 µM [falling, partial curve]. In the case of CCN(CCC(=O)Nc1cc([N+](=O)[O-])ccc1OC)Cc1ccccc1, the activity change, negative = inhibition is reported as “inactive”. In the case of CCCC(=O)c1ccc(N2CCOCC2)c(F)c1, the activity change, negative = inhibition is reported as inconclusive: 8.83%. In the case of Cc1c(C=O)c2ccccn2c1C(=O)c1ccc(F)cc1, the activity change, negative = inhibition is reported as inconclusive: 3.65%. With COc1ccc(C(=O)NNC(=O)C23CC4CC(CC(C4)C2)C3)c(OC)c1 the activity change, negative = inhibition was “inactive”. In the case of COc1ccc([C@@H]2C[C@H]3CN(Cc4ccccc4OC)C(=O)[C@]34CCCN24)cc1C, the activity change, negative = inhibition is reported as inconclusive: 3.95%. For Cc1ccc(S(=O)(=O)N(CC(=O)N2CCOCC2)c2ccc(Br)cc2)cc1, the activity change, negative = inhibition was inconclusive: -5.87%. For Cn1cccc1CNC(=O)Nc1ccccc1, the Potency was inconclusive: 29.1 µM [falling, single point]. For CC(C)(C)c1ccc(/C=N/NC(=S)NC2CCCCC2)cc1, the activity change, negative = inhibition was “inactive”. In the case of CCN(CC)CCC(=O)N1c2ccccc2CCc2ccc(NC(=O)OC)cc21, the activity change, negative = inhibition is reported as inconclusive: -3.36%. With O=C(Nc1nc(-c2cc(F)ccc2F)cs1)C1=COCCO1 the activity change, negative = inhibition was inconclusive: 6.94%. In the case of CCC(CC)C(=O)N1CC(=O)Nc2ccc(C)cc2C1c1ccccc1 (stereo unspecified), the activity change, negative = inhibition is reported as inconclusive: -0.996%. With COC1=C(OC)C(=O)C(CCCCCCCCCCO)=C(C)C1=O the activity change, negative = inhibition was inconclusive: -18.9%. In the case of Cc1sc2nc(CN3CCOCC3)[nH]c(=S)c2c1C, the activity change, negative = inhibition is reported as inconclusive: -1.82%. In the case of CN(C)S(=O)(=O)c1ccc(C(=O)NNC(=O)C23CC4CC(CC(C4)C2)C3)cc1, the activity change, negative = inhibition is reported as “inactive”. For CCCn1c(=N)n(CC(=O)c2ccco2)c2ccccc21, the activity change, negative = inhibition was inconclusive: 7.25%. For COC(=O)CC1=C(C(=O)OC)C(c2cccs2)C(C#N)=C(N)O1 (stereo unspecified), the activity change, negative = inhibition was inconclusive: -6.18%. For Cc1cc(Nc2cccc([N+](=O)[O-])c2)c2cccc(C)c2n1, the activity change, negative = inhibition was inconclusive: -19.6%. With CC(=O)c1c(C)[nH]c(C(=O)CSc2nnc(C3CCCCC3)n2N)c1C the activity change, negative = inhibition was inconclusive: -16.7%. With Cn1cc(S(=O)(=O)NC[C@H]2O[C@@H](n3cnc4c(N)ncnc43)[C@H](O)[C@@H]2O)cn1 the activity change, negative = inhibition was inconclusive: 5.25%. For Cc1ccccc1N1CCN(C2CCCN(C(=O)CN3CCCC3=O)C2)CC1 (stereo unspecified), the activity change, negative = inhibition was inconclusive: 4.07%. With O=C(c1scc2c1CCCC2)N1CCCCC1 the activity change, negative = inhibition was inconclusive: 18.3%. With CN(C)c1cc(-c2ccc(Cl)cc2)oc(=O)c1Cl the Potency was inconclusive: 7.94 µM [rising, partial curve]. For Cc1ccc(NC(=S)NNC(=S)NCc2ccccc2)cc1, the activity change, negative = inhibition was “inactive”. In the case of C=CCNc1nc(-c2sc(NC(C)=O)nc2C)cs1, the Potency is reported as inconclusive: 14.6 µM [falling, partial curve, poor fit]. With COc1cccc(OC)c1C(=O)NC(=S)N1CCCCC1c1cccnc1 (stereo unspecified) the Potency was inconclusive: 35.5 µM [falling, single point]. With COc1ccc(C2CC2/C(=N/OC(=O)c2cccs2)c2ccccc2)cc1 (stereo unspecified) the activity change, negative = inhibition was inconclusive: -16.8%. With N#CC1=C2N=C(N)c3c(sc4c3CCCCC4)N2C2=C(C(=O)CCC2)C1c1ccccc1 (stereo unspecified) the activity change, negative = inhibition was inconclusive: -0.408%. In the case of O=c1c2cnn(-c3ccccc3)c2ncn1CCc1ccccc1, the activity change, negative = inhibition is reported as inconclusive: 10.9%. For CC1(C)Cc2c(sc3ncnc(NN)c23)CO1, the activity change, negative = inhibition was “inactive”. With Nc1ccc(C(=O)Nc2ccc(Nc3ccncc3)cc2)cc1 the activity change, negative = inhibition was inconclusive: -18.3%. In the case of Cc1ccc(-c2nc(N)sc2-c2ccc(C)cc2)cc1, the activity change, negative = inhibition is reported as inconclusive: -3.48%. With S=C(NCc1ccco1)N1CCN(c2ccccn2)CC1 the activity change, negative = inhibition was “inactive”. In the case of COCC(C)n1c(C)cc(C(=O)COC(=O)CNC(=O)c2ccccc2)c1C (stereo unspecified), the activity change, negative = inhibition is reported as inconclusive: 4.77%. With COc1cccc(NC(=O)c2nnn(CCc3ccccc3)c2N)c1 the Potency was inconclusive: 23.1 µM [falling, single point]. In the case of COc1ccc(CN(C)C(=O)CCN(c2ccccc2)S(=O)(=O)c2ccc(C)cc2)c(OC)c1, the activity change, negative = inhibition is reported as “inactive”. In the case of CC(=O)Nc1ccc(NC(=O)c2cc(=O)c3cc(C)cc(C)c3o2)cc1, the activity change, negative = inhibition is reported as inconclusive: -6.62%. For CC(C)NC(=O)COc1coc(CN2CCN(c3ccccc3)CC2)cc1=O, the activity change, negative = inhibition was “inactive”. With CC(SCc1ccccc1)C(=O)N/N=C/c1ccc2c(c1)OCO2 (stereo unspecified) the Potency was inconclusive: 18.4 µM [falling, single point]. In the case of Cc1ccc2c(c1)c1c(n2CC(O)CN2CCCCC2C)CCCC1 (stereo unspecified), the activity change, negative = inhibition is reported as “inactive”. With COc1cc(CNCCN(C)C)c(Br)cc1OC1CCCC1 the activity change, negative = inhibition was inconclusive: 13.9%. In the case of OCC1(CCOc2ccccc2)CCN(CC2=Cc3cc(Cl)ccc3OC2)CC1, the activity change, negative = inhibition is reported as “inactive”. In the case of Cc1ccc(-n2ncc3c(N4CCCCC4)ncnc32)cc1Cl, the Potency is reported as inconclusive: 15.8 µM [falling, partial curve]. For COc1ccc(F)cc1C(=O)C1CCCN(Cc2cccn2-c2ccccn2)C1 (stereo unspecified), the activity change, negative = inhibition was inconclusive: -20%. For COc1ccc(Nc2nc(N)c(C(=O)c3ccc(OC)cc3)s2)cc1, the activity change, negative = inhibition was inconclusive: -14.1%. In the case of CC1Cc2ccccc2N1C(=O)C1CCN(S(=O)(=O)Cc2ccccc2)CC1 (stereo unspecified), the activity change, negative = inhibition is reported as inconclusive: -0.663%. For CC(C)[C@H](NC(=O)c1ccccc1Cl)C(=O)OCC(=O)NC(=O)NC1CCCC1, the activity change, negative = inhibition was “inactive”.
